Laboratory results reported in PMC5620269.
These are yes or no findings as the source states them, for the method shown. In cells and extracts the contact can be indirect. Some binding calls cover weakened binding; strength is not graded here.

By UniProt entry, the sequences of proteins in these tests, tags left out.
UniProt P38936: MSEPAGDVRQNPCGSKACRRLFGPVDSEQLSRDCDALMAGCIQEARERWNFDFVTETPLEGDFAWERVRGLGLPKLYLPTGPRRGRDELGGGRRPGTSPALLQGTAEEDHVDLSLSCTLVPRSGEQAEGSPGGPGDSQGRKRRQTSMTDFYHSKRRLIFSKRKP
UniProt P43365: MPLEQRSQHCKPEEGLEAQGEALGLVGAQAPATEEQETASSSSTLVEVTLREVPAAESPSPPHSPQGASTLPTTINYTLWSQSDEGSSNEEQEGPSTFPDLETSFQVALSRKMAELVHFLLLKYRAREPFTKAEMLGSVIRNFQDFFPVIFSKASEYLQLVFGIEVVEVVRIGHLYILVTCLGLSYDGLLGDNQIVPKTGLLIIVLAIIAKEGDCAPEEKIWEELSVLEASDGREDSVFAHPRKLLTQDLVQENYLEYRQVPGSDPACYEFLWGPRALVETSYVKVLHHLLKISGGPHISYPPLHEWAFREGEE

Biological target: p21 (Cip1, Waf1, cyclin-dependent kinase inhibitor 1A) (human (endogenous in PPC1)) (UniProt P38936)
Experiment: co-IP; PPC1 cells transfected with pcDNA3-HA-MAGE-A12, 48 h; lysis in 1% NP-40 buffer; IP with antibodies to p21 or control rabbit IgG, immunoblot with anti-HA

HA-tagged MAGE-A12 (from UniProt P43365 1-314)
binding: binds
